According to PubChem BioAssay AID256 (DTP/NCI, 2004):
The list is a part of this screen's results and no random one: it is rich in T/C values a quarter to a half above the control, in often repeated tests (any T/C) and in doses without a T/C. Other doses and runs of a compound stand elsewhere. T/C gives the treated animals as a percentage of the vehicle group. Some doses have a count of surviving animals in place of a T/C: the source holds a T/C of zero for them, seemingly a mark for toxic or unscored doses. Some survivor counts are full or nearly so, which does not show that the dose was tolerated: survival well below the control is almost never listed, so the zero probably covers shortened survival too. Survivors were counted at the toxicity check, usually on the fifth day, unless a day is given; later deaths do not show. Schedules are NCI's codes, read here as Q, the interval in days (D) or hours (H), X, the number of doses. Some entries hold several experiments; the results are listed from low to high. For survival time, this PubChem deposit counts one and a half times the control or more as active, and values a quarter to a half above the control carry no call in these data; other NCI protocols may use other cut-offs.

System: CD2F1 mice, L1210 leukemia ip, survival T/C
Experiment: NCI In Vivo Anticancer Drug Screen. Data for tumor model L1210 Leukemia (intraperitoneal) in CD2F1 (CDF1) mice
Conditions: higher T/C = longer survival
How it was run: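 Read-out first: treated-group measurement over vehicle-control measurement, expressed as a ratio. Animals bore a transplanted tumor line and were dosed with compound or vehicle.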

[1] = T/C endpoint: mean survival time, dose: 100.0 mg/kg/injection, schedule: Q04DX002 (ip), vehicle: saline with Tween-80

**Q.** Which results are given for O=C1C=C(c2ccccc2)C(O)(c2ccccc2)/C1=C/c1ccccc1 (stereo not drawn)?
**A.** survivor count (T/C endpoint: mean survival time, dose: 25.0 mg/kg/injection, schedule: Q04DX002 (ip), vehicle: saline with Tween-80): 3 of 3; survivor count (T/C endpoint: mean survival time, dose: 50.0 mg/kg/injection, schedule: Q04DX002 (ip), vehicle: saline with Tween-80): 3 of 3; survivor count [1]: 3 of 3; survivor count (T/C endpoint: mean survival time, dose: 400.0 mg/kg/injection, schedule: Q04DX002 (ip), vehicle: saline with Tween-80): 0 of 3

**Q.** How did the survivor count (T/C endpoint: mean survival time, dose: 50.0 mg/kg/injection, schedule: Q04DX003 (ip), vehicle: DMSO) turn out when CC(=O)Nc1nc(Br)c2ccccc2c1-c1ccc(N(CCCl)CCCl)cc1 was run?
**A.** Its survivor count is 4 of 6.

**Q.** Which survivor count (T/C endpoint: mean survival time, dose: 200.0 mg/kg/injection, schedule: Q01DX009 (ip), vehicle: saline with Tween-80) does the source give for Clc1nc(Cl)nc(-c2cccn2-c2ccccc2)n1 here?
**A.** Its survivor count is 0 of 6.

**Q.** And the survivor count (T/C endpoint: mean survival time, dose: 400.0 mg/kg/injection, schedule: Q01DX009 (ip), vehicle: saline with Tween-80)?
**A.** The survivor count was 0 of 6.

**Q.** For N#CC(c1c[nH]c2ccccc12)N1CCOCC1 (stereo not drawn), which survivor count [1] is on record?
**A.** The survivor count was 0 of 3.

**Q.** Which results are given for Oc1ccc(Br)cc1/C=N/c1nc(-c2ccccc2)cs1.Oc1ccc(Br)cc1/C=N/c1nc(-c2ccccc2)cs1.[Cu]?
**A.** survivor count (T/C endpoint: mean survival time, dose: 100.0 mg/kg/injection, schedule: Q01DX001 (ip), vehicle: saline with Tween-80): 3 of 3; survivor count (T/C endpoint: mean survival time, dose: 400.0 mg/kg/injection, schedule: Q01DX001 (ip), vehicle: saline with Tween-80): 2 of 3

**Q.** O=[N+]([O-])c1ccc(Sc2ccncn2)c([N+](=O)[O-])c1 was tested. Which survivor count (T/C endpoint: median survival time, dose: 200.0 mg/kg/injection, schedule: Q01DX009 (ip), vehicle: saline with Tween-80) did it give?
**A.** The survivor count was 1 of 6.

**Q.** Which survivor count (T/C endpoint: mean survival time, dose: 100.0 mg/kg/injection, schedule: Q04DX003 (ip), vehicle: distilled water + Tween-80) does the source give for S=c1nccc[nH]1.[Pd] here?
**A.** The survivor count was 2 of 6.

**Q.** And the survivor count (T/C endpoint: mean survival time, dose: 200.0 mg/kg/injection, schedule: Q04DX003 (ip), vehicle: distilled water + Tween-80)?
**A.** The survivor count was 0 of 6.

**Q.** With CCOC(=O)C[n+]1ccccc1/C=C/c1ccc(O)cc1 as the compound, how does the survivor count (T/C endpoint: mean survival time, dose: 75.0 mg/kg/injection, schedule: Q01DX001 (ip), vehicle: other) read?
**A.** Its survivor count is 0 of 6.

**Q.** What about the survivor count (T/C endpoint: mean survival time, dose: 150.0 mg/kg/injection, schedule: Q01DX001 (ip), vehicle: other) of the same compound?
**A.** Its survivor count is 0 of 6.

**Q.** What about the survivor count (T/C endpoint: mean survival time, dose: 300.0 mg/kg/injection, schedule: Q01DX001 (ip), vehicle: other) of the same compound?
**A.** Its survivor count is 0 of 6.

**Q.** Which survivor count (T/C endpoint: mean survival time, dose: 47.5 mg/kg/injection, schedule: Q01DX005 (ip), vehicle: water) does the source give for OCC1OC(n2nnc3cc[nH]c(=S)c32)C(O)C1O (stereo not drawn) here?
**A.** Its survivor count is 0 of 4.

**Q.** What about the survivor count (T/C endpoint: mean survival time, dose: 95.0 mg/kg/injection, schedule: Q01DX005 (ip), vehicle: water) of the same compound?
**A.** Its survivor count is 0 of 4.

**Q.** What about the survivor count (T/C endpoint: mean survival time, dose: 190.0 mg/kg/injection, schedule: Q01DX005 (ip), vehicle: water) of the same compound?
**A.** Its survivor count is 0 of 4.

**Q.** Which results are given for N=C(N)SC1c2ccccc2-c2ccc(N)cc21 (stereo not drawn)?
**A.** survivor count (T/C endpoint: mean survival time, dose: 200.0 mg/kg/injection, schedule: Q04DX003 (ip), vehicle: saline with Tween-80): 3 of 6; survivor count (T/C endpoint: mean survival time, dose: 400.0 mg/kg/injection, schedule: Q04DX003 (ip), vehicle: saline with Tween-80): 0 of 6

**Q.** With CSc1nc2c(c(=O)[nH]1)c1c(N)ncnc1n2C1OC(CO)C(O)C1O (stereo not drawn) as the compound, how does the survivor count (T/C endpoint: mean survival time, dose: 400.0 mg/kg/injection, schedule: Q01DX005 (ip), vehicle: water) read?
**A.** Its survivor count is 2 of 4.

**Q.** With O=C(C/C(=N\C(=S)Nc1cc(C(F)(F)F)ccc1Cl)NO)N1CCCC1 as the compound, how does the T/C (T/C endpoint: median survival time, dose: 100.0 mg/kg/injection, schedule: Q01DX009 (ip), vehicle: saline with Tween-80) read?
**A.** The T/C was 125 % of control.

**Q.** What about the survivor count (T/C endpoint: median survival time, dose: 400.0 mg/kg/injection, schedule: Q01DX009 (ip), vehicle: saline with Tween-80) of the same compound?
**A.** Its survivor count is 3 of 6 and 5 of 6.

**Q.** How did the survivor count (T/C endpoint: mean survival time, dose: 37.5 mg/kg/injection, schedule: Q01DX001 (ip), vehicle: saline) turn out when CCCCCCCCCCC[n+]1ccc(C#N)cc1 was run?
**A.** The survivor count was 1 of 6.

**Q.** Which T/C (T/C endpoint: median survival time, dose: 1.56 mg/kg/injection, schedule: Q01DX009 (ip), vehicle: Klucel (hydroxypropylcellulose) (HPC)) does the source give for CN=C(NC)c1ccc(NC(=O)/C=C\c2ccc(/C=C/C(=O)Nc3ccc(C(=NC)NC)cc3)cc2)cc1 here?
**A.** The T/C was 127 % of control.

**Q.** And the survivor count (T/C endpoint: median survival time, dose: 24.0 mg/kg/injection, schedule: Q01DX009 (ip), vehicle: Klucel (hydroxypropylcellulose) (HPC))?
**A.** The survivor count was 0 of 6.

**Q.** What about the survivor count (T/C endpoint: median survival time, dose: 25.0 mg/kg/injection, schedule: Q01DX009 (ip), vehicle: Klucel (hydroxypropylcellulose) (HPC)) of the same compound?
**A.** The survivor count was 0 of 6.
